PubChem BioAssay AID1259405, NCATS – 2018

Aim: 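Mouse-designed siRNAs used to find CHO productivity engineering targets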 (primary screen)
Cells: Chinese hamster CHO-K1 ovary cells with stable secreted eGFP expression
Reagent: single siRNA against mouse genes, 0.8 pmol siRNA per well (2 µl of 400 nM stock)
Duration: 3 days
Measured: 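Percent of the per-plate non-targeting control median for intracellular GFP per well by laser scanning cytometry and for cell viability by ATP luminescence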
Scale: GFP, % of control: higher = more GFP per well, higher productivity; viability (ATP), % of control: higher = more viable cells (more ATP)
Call rule: 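a knock-down is called active if GFP reaches 120% or more of non-targeting control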
In all, the deposit lists about 50,000 reagents; this is an unselected part. Over the whole deposit, about 4,000 (8%) are marked active. 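Mouse siRNA library applied to hamster cells; one well for each siRNA.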

| Target gene | PubChem SID | GFP, % of control | viability (ATP), % of control | outcome |
| --- | --- | --- | --- | --- |
| Glud1 (glutamate dehydrogenase 1) | SID363575027 | 65 | 81.7 | inactive |
| Glud1 (glutamate dehydrogenase 1) | SID363580659 | 76.2 | 60.4 | inactive |
| Glud1 (glutamate dehydrogenase 1) | SID363582771 | 86.9 | 72.8 | inactive |
| Cdcp3 (CUB domain containing protein 3) | SID363544072 | 60.7 | 75.3 | inactive |
| Cdcp3 (CUB domain containing protein 3) | SID363550400 | 77.3 | 76.7 | inactive |
| Cdcp3 (CUB domain containing protein 3) | SID363556949 | 84.4 | 84.7 | inactive |
| Zfp112 (zinc finger protein 112) | SID363573850 | 84 | 106 | inactive |
| Zfp112 (zinc finger protein 112) | SID363581594 | 72.5 | 79.3 | inactive |
| Zfp112 (zinc finger protein 112) | SID363584058 | 58 | 83.3 | inactive |
| Cyb561a3 (cytochrome b561 family, member A3) | SID363545284 | 133 | 94.7 | active |
| Cyb561a3 (cytochrome b561 family, member A3) | SID363548797 | 70 | 88.2 | inactive |
| Cyb561a3 (cytochrome b561 family, member A3) | SID363562603 | 100 | 74.4 | inactive |
| Pde8b (phosphodiesterase 8B) | SID363547431 | 115 | 151 | inactive |
| Pde8b (phosphodiesterase 8B) | SID363558200 | 87.7 | 101 | inactive |
| Pde8b (phosphodiesterase 8B) | SID363559958 | 67.1 | 74.5 | inactive |
| C8g (complement component 8, gamma polypeptide) | SID363569137 | 99.3 | 79.3 | inactive |
| C8g (complement component 8, gamma polypeptide) | SID363583569 | 98 | 84.6 | inactive |
| Tmem37 (transmembrane protein 37) | SID363554596 | 73 | 55.1 | inactive |
| Tmem37 (transmembrane protein 37) | SID363568043 | 185 | 66.5 | active |
| Tmem37 (transmembrane protein 37) | SID363586102 | 131 | 77.8 | active |
| Alk (anaplastic lymphoma kinase) | SID363570960 | 67.6 | 76.1 | inactive |
| Csnk1g1 (casein kinase 1, gamma 1) | SID363547400 | 97.9 | 93.9 | inactive |
| Csnk1g1 (casein kinase 1, gamma 1) | SID363558169 | 72.4 | 44.5 | inactive |
| Csnk1g1 (casein kinase 1, gamma 1) | SID363559927 | 72.9 | 84 | inactive |
| Mgat5 (mannoside acetylglucosaminyltransferase 5) | SID363570372 | 61.2 | 57.4 | inactive |
| Mgat5 (mannoside acetylglucosaminyltransferase 5) | SID363579172 | 76.9 | 75.6 | inactive |
| Mgat5 (mannoside acetylglucosaminyltransferase 5) | SID363583044 | 72.3 | 84.7 | inactive |
| Pld4 (phospholipase D family member 4) | SID363545625 | 81.4 | 83.3 | inactive |
| Pld4 (phospholipase D family member 4) | SID363549138 | 93.9 | 89.7 | inactive |
| Pld4 (phospholipase D family member 4) | SID363562944 | 75.3 | 66.7 | inactive |
| Havcr2 (hepatitis A virus cellular receptor 2) | SID363573431 | 124 | 81 | active |
| Havcr2 (hepatitis A virus cellular receptor 2) | SID363588670 | 89.5 | 68.1 | inactive |
| Rdh19 (retinol dehydrogenase 19) | SID363545372 | 102 | 113 | inactive |
| Rdh19 (retinol dehydrogenase 19) | SID363548885 | 102 | 104 | inactive |
| Rdh19 (retinol dehydrogenase 19) | SID363562691 | 79.8 | 60 | inactive |
